This passage reports binding results from US20120210450A1.

By UniProt entry, the sequences of proteins in these tests, tags left out. Where a name states a change or a piece, a line headed by the entry shows the natural chain unless it says otherwise.
UniProt P01579: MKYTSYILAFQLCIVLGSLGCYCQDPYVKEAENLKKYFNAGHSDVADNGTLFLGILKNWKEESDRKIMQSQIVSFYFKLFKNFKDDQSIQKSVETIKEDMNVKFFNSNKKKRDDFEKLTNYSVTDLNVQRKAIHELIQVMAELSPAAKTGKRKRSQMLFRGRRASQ

These are yes or no findings as the source states them, for the method shown. Binding calls can cover weak binding; strength is not graded here. Where a sequence is shown, tags or fusion partners need not be part of it.

For this assay, the target named is T1, UNQ1900-ECD-Fc (human) (UniProt Q6UXG8).
T1 sequence: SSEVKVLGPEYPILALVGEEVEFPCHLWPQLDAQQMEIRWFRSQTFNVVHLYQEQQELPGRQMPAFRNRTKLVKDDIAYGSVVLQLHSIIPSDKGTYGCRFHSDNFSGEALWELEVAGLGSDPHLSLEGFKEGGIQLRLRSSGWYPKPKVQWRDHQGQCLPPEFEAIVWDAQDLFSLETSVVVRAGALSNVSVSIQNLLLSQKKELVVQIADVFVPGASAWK
Briefly: BiaCore (SPR), UNQ1900-ECD-Fc coated on chip, screen of 275 proteins.

For the substance “INF-gamma (from UniProt P01579) (ligand)”, the binding entry is “binds”.
